Measurements reported in PubChem BioAssay AID504784 (Drosophila RNAi Screening Center, 2011)

- Purpose: 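Fly genes whose silencing alters how much lipid cells keep in droplets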 (primary screen)
- System: Drosophila Kc167 embryonic cells
- Reagents: long dsRNA against Drosophila genes, about 250 ng dsRNA per well
- Duration: 4 days
- Conditions: cells fed 400 µM oleic acid bound to BSA
- Measured: 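Cells imaged and segmented; ratio of lipid droplet area to nuclear area, log-transformed, then normalised as a B-score over the screen; higher means more stored lipid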
- Direction: droplet/nuclear area B-score: higher = more stored lipid (overstorage)
The deposit covers about 17,000 reagents; below is an unselected part of those with a known target gene and a result. 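Each column is one replicate's B-score; the combined score over replicates was not deposited, so single values may mislead.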 A plus sign joins genes that one reagent is predicted to hit. Further read-outs or replicates are left out here.

With CG15822 (GeneID 38273) [DRSC08482], how do the results read?
droplet/nuclear area B-score, replicate 1: -1.1

What is on record for CG15822 (GeneID 38273) [DRSC08483]?
droplet/nuclear area B-score, replicate 1: -0.802

Which result is listed for CG5742 (GeneID 37072) [DRSC06949]?
droplet/nuclear area B-score, replicate 1: -1.08

For alpha-Cat (GeneID 40517) [DRSC11917], how do the results read?
droplet/nuclear area B-score, replicate 1: -2.27

How did the screen score CG42540 (GeneID 38562) [DRSC08327]?
droplet/nuclear area B-score, replicate 1: 1.62

What did the screen give for CG42540 (GeneID 38562) [DRSC08328]?
droplet/nuclear area B-score, replicate 1: 0.0288

What is on record for CG42540 (GeneID 38562) [DRSC08593]?
droplet/nuclear area B-score, replicate 1: 0.196

What is on record for CG42540 (GeneID 38562) [DRSC23011]?
droplet/nuclear area B-score, replicate 1: -0.918

For nod (GeneID 32107) [DRSC18900], what does the deposit list?
droplet/nuclear area B-score, replicate 1: 0.259

With nod (GeneID 32107) [DRSC20356], what was measured?
droplet/nuclear area B-score, replicate 1: 1.48

How did the screen score Dip-C (GeneID 47769) [DRSC15855]?
droplet/nuclear area B-score, replicate 1: -0.167

What did the screen give for Lcp65Ag3 + Lcp65Ag2 + Lcp65Ag1 [DRSC11214]?
droplet/nuclear area B-score, replicate 1: -1.84

Which result is listed for Lcp65Ag3 + Lcp65Ag2 + Lcp65Ag1 [DRSC11215]?
droplet/nuclear area B-score, replicate 1: -0.102

How did the screen score cindr (GeneID 43654) [DRSC14126]?
droplet/nuclear area B-score, replicate 1: -0.478

With cindr (GeneID 43654) [DRSC14298], what was measured?
droplet/nuclear area B-score, replicate 1: 0.461

What is on record for Antp (GeneID 40835) [DRSC12490]?
droplet/nuclear area B-score, replicate 1: -0.00648

For Antp (GeneID 40835) [DRSC23104], what does the deposit list?
droplet/nuclear area B-score, replicate 1: 1.02

With CG14230 (GeneID 32984) [DRSC19586], how do the results read?
droplet/nuclear area B-score, replicate 1: 0.264

What did the screen give for CG13001 (GeneID 32684) [DRSC19520]?
droplet/nuclear area B-score, replicate 1: -0.107

With CG13001 (GeneID 32684) [DRSC22443], how do the results read?
droplet/nuclear area B-score, replicate 1: -0.394

What did the screen give for mthl4 (GeneID 36960) [DRSC06998]?
droplet/nuclear area B-score, replicate 1: -1.29

For CG15528 (GeneID 43575) [DRSC15065], what was measured?
droplet/nuclear area B-score, replicate 1: 0.913

What did the screen give for RhoGAP68F (GeneID 39385) [DRSC10717]?
droplet/nuclear area B-score, replicate 1: 1.45

For Arpc5 (GeneID 33444) [DRSC00730], what was measured?
droplet/nuclear area B-score, replicate 1: 0.0093

For Megf8 (GeneID 34099) [DRSC03058], how do the results read?
droplet/nuclear area B-score, replicate 1: -0.545

Which result is listed for caup (GeneID 39440) [DRSC11334]?
droplet/nuclear area B-score, replicate 1: -2.88

What is on record for caup (GeneID 39440) [DRSC23050]?
droplet/nuclear area B-score, replicate 1: 0.704

A portion taken from the entries so far, as a working copy:
CG42540 (GeneID 38562) [DRSC08328] | droplet/nuclear area B-score, replicate 1 = 0.0288
CG42540 (GeneID 38562) [DRSC08593] | droplet/nuclear area B-score, replicate 1 = 0.196
CG42540 (GeneID 38562) [DRSC23011] | droplet/nuclear area B-score, replicate 1 = -0.918
nod (GeneID 32107) [DRSC18900] | droplet/nuclear area B-score, replicate 1 = 0.259
